Experiment [1] deals with ^35S-labelled in vitro translated SIRT1 (human) (UniProt Q96EB6). Nature of the experiment: GST pull-down of ^35S-labelled in vitro translated SIRT1, autoradiography (FIG. 7).
Experiment [2] has the same target. Nature of the experiment: GST pull-down with in vitro translated ^35S-labelled SIRT1 (FIG. 7).
In experiment [3] the target is DBC1 (Deleted in Breast Cancer 1) protein (human) (UniProt Q8N163). The experiment is described as follows: reciprocal co-immunoprecipitation from U2OS cell extracts, Western blot. In general terms: Immunoblotting shows a protein as a band on a membrane.
Experiment [4] shares this target. The experiment is described as follows: co-immunoprecipitation with DBC1 specific antibody, Western blot (FIG. 2b).
Experiment [5] has the same target. The experiment is described as follows: co-immunoprecipitation with a DBC1-specific antibody from U2OS cells, Western blot (FIG. 6).

Protein sequences, listed by entry. Tags and fused reporters are not part of them. Lines headed by an entry give the natural chain unless they say otherwise; changes in a name come on top. Residues count along the entry.
UniProt Q96EB6: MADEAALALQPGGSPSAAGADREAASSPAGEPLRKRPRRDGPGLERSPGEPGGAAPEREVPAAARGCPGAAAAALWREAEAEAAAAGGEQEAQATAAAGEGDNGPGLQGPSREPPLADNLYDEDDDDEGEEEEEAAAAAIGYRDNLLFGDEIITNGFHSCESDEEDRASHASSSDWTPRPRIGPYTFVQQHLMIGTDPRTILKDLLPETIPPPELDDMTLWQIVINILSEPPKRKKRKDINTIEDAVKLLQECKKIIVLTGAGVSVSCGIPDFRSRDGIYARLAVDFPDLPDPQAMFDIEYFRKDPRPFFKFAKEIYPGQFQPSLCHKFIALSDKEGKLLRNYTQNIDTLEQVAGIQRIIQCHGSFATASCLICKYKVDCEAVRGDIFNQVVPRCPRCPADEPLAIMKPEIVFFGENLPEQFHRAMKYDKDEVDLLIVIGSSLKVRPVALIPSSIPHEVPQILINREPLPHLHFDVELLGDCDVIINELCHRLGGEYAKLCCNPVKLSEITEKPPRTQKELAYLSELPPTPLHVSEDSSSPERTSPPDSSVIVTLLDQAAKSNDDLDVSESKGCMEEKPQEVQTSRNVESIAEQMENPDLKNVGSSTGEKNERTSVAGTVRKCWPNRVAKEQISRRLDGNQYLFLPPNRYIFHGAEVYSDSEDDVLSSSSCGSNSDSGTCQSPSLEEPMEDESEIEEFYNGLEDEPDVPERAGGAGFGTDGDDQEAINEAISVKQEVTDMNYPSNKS
UniProt Q8N163, residues 1-399: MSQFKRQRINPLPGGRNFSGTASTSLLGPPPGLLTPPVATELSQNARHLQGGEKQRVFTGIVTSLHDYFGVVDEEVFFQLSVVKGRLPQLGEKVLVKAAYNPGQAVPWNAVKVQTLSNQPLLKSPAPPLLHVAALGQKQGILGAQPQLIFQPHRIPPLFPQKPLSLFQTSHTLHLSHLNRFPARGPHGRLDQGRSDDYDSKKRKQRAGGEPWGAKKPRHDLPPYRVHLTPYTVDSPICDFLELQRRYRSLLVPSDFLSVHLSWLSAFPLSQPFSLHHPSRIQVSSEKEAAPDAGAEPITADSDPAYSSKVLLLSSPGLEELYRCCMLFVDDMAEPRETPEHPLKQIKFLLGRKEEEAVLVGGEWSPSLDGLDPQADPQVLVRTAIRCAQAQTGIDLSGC

Consider two substances from patent US8043804.

No constants are given. Whether binding was seen depends on the method and setting. In cells and extracts the contact can be indirect. Some binding calls cover weakened binding; strength is not graded here.

As for GST-NT-DBC1 (from UniProt Q8N163 1-399), the binding result in experiment [1] and in experiment [2] was “binds” each time.

As to “SIRT1 (Silencing mating type information regulator 2 homolog) (from UniProt Q96EB6 2-747) (enzyme)”, the binding entry in experiment [3], in experiment [4] and in experiment [5] was “binds” each time.
